Laboratory results: publication PMC4255804
Results are given in words; binding and its absence hold for the method and conditions named. Binding seen in cells or lysates may run through a third protein. Binding can be weak; no strength is given.

Assays:
[1] = target: T1, Caveolin-1 (Cav1), endogenous in rat intestinal epithelial cells (rat (endogenous in IEC-6)) (UniProt P41350); assay: co-IP; whole-cell lysates in RIPA buffer (500 ug) of IEC-6, IEC-Cdx2L1, IEC-TRPC1 (also after siCav1 or C-siRNA), IEC-Cav1 and Null cells; IP with anti-Cav1 or anti-TRPC1 antibody (4 ug), protein A/G-PLUS-Agarose, 4 C; western blot for TRPC1 or Cav1
T1 sequence: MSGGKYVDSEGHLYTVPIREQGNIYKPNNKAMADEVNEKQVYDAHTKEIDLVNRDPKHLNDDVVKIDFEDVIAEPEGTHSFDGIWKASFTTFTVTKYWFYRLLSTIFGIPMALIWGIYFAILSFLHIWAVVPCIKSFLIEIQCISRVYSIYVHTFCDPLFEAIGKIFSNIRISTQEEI

[2] = target: TRPC1 stably overexpressed in IEC-6 cells (IEC-TRPC1); assay: as above

**Q.** How did the binding [1] turn out when “TRPC1 stably overexpressed in IEC-6 cells (IEC-TRPC1)” was run?
**A.** The binding was “binds”.

B1: Caveolin-1 (Cav1), endogenous in rat intestinal epithelial cells (protein, UniProt P41350 1-178)
chain: T1 sequence
**Q.** B1 was tested. Which binding [2] did it give?
**A.** The binding was “binds”.
